# Measurements as given in the supplement of paper PMC8728848.
# This is one part of the list.
# B1: ArathEULS3 TAP (Arabidopsis thaliana) (protein)
# chain: IDENLYFQGGSMDEKTTGWRGGHVVEGLAGELEQLRARLEHHPQGQREPGGGGSLEITSLYKKAGFMEHHHQHHRHHQRDDGEDDRQSFGVPPPHVDAPPQPHGLYQSQPHFDPYAPTPQAPAPYRSETQFEPHAPPPYRSEPYFETPAPPPSFGHVSHVGHQSPNESYPPEHHRYGGYQQPSNSLLESHGDHSGVTHVAHHSSNQPQSSSGVYHKPDENRLPDNLAGLAGRATVKVYSKAEPNYNLTIRDGKVILAPADPSDEAQHWYKDEKYSTKVKDADGHPCFALVNKATGEAMKHSVGATHPVHLIRYVPDKLDESVLWTESKDFGDGYRTIRMVNNTRLNVDAYHGDSKSGGVRDGTTIVLWDWNKGDNQLWKIFPF
# Tests used:
# Test in all cases: glycan array binding signal (z-score within array); higher = stronger binding
# Details in all cases: glycan notation: IUPAC condensed, linker removed
# [1] = molecular target: Neu5Ac(a2-3)Gal(b1-3)GalNAc
# Outline: (§1)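 Columns mapping to the same glycan were averaged after glycan names were converted to IUPAC-condensed notation. The data come from 3228 arrays in the Consortium for Functional Glycomics database, limited to those with an available protein sequence. Binding is reported as a within-array Z-score averaged across arrays of one protein sequence and across linkers.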
# [2] = molecular target: Neu5Ac(a2-3)Gal(b1-3)GalNAc(b1-3)Gal(a1-4)Gal(b1-4)Glc
# Outline: as §1
# [3] = molecular target: Neu5Ac(a2-3)Gal(b1-3)GalNAc(b1-4)[Neu5Ac(a2-3)]Gal(b1-4)Glc
# Outline: as §1
# [4] = molecular target: Neu5Ac(a2-3)Gal(b1-3)GalNAc(b1-4)[Neu5Ac(a2-8)Neu5Ac(a2-3)]Gal(b1-4)Glc
# Outline: as §1
# [5] = molecular target: Neu5Ac(a2-3)Gal(b1-3)GalNAc6S
# Outline: as §1
# [6] = molecular target: Neu5Ac(a2-3)Gal(b1-3)GlcNAc
# Outline: as §1
# [7] = molecular target: Neu5Ac(a2-3)Gal(b1-3)GlcNAc(b1-2)Man
# Outline: as §1
# [8] = molecular target: Neu5Ac(a2-3)Gal(b1-3)GlcNAc(b1-2)Man(a1-3)[GlcNAc(b1-4)][Neu5Ac(a2-3)Gal(b1-3)GlcNAc(b1-2)Man(a1-6)]Man(b1-4)GlcNAc(b1-4)GlcNAc
# Outline: as §1
# [9] = molecular target: Neu5Ac(a2-3)Gal(b1-3)GlcNAc(b1-2)Man(a1-3)[Neu5Ac(a2-3)Gal(b1-3)GlcNAc(b1-2)Man(a1-6)]Man(b1-4)GlcNAc(b1-4)GlcNAc
# Outline: as §1
# [10] = molecular target: Neu5Ac(a2-3)Gal(b1-3)GlcNAc(b1-2)[Neu5Ac(a2-3)Gal(b1-3)GlcNAc(b1-4)]Man(a1-6)[Neu5Ac(a2-3)Gal(b1-3)GlcNAc(b1-2)Man(a1-3)]Man(b1-4)GlcNAc(b1-4)GlcNAc
# Outline: as §1
# [11] = molecular target: Neu5Ac(a2-3)Gal(b1-3)GlcNAc(b1-3)Gal(b1-3)GlcNAc
# Outline: as §1
# [12] = molecular target: Neu5Ac(a2-3)Gal(b1-3)GlcNAc(b1-3)Gal(b1-4)GlcNAc
# Outline: as §1
# [13] = molecular target: Neu5Ac(a2-3)Gal(b1-3)GlcNAc(b1-3)GalNAc
# Outline: as §1
# [14] = molecular target: Neu5Ac(a2-3)Gal(b1-3)GlcNAc(b1-4)Gal(b1-4)Glc
# Outline: as §1
# [15] = molecular target: Neu5Ac(a2-3)Gal(b1-3)GlcNAc(b1-6)GalNAc
# Outline: as §1
# [16] = molecular target: Neu5Ac(a2-3)Gal(b1-3)GlcNAc6S
# Outline: as §1
# [17] = molecular target: Neu5Ac(a2-3)Gal(b1-3)[Fuc(a1-4)]GlcNAc
# Outline: as §1
# [18] = molecular target: Neu5Ac(a2-3)Gal(b1-3)[Fuc(a1-4)]GlcNAc(b1-3)Gal(b1-3)[Fuc(a1-4)]GlcNAc
# Outline: as §1
# [19] = molecular target: Neu5Ac(a2-3)Gal(b1-3)[Fuc(a1-4)]GlcNAc(b1-3)Gal(b1-4)[Fuc(a1-3)]GlcNAc
# Outline: as §1
# [20] = molecular target: Neu5Ac(a2-3)Gal(b1-3)[GlcNAc(b1-6)]GalNAc
# Outline: as §1
# [21] = molecular target: Neu5Ac(a2-3)Gal(b1-3)[Neu5Ac(a2-6)]GalNAc
# Outline: as §1
# [22] = molecular target: Neu5Ac(a2-3)Gal(b1-3)[Neu5Ac(a2-6)]GlcNAc(b1-3)[Fuc(a1-3)[Gal(b1-4)]GlcNAc(b1-6)]Gal(b1-4)Glc
# Outline: as §1
# [23] = molecular target: Neu5Ac(a2-3)Gal(b1-3)]Neu5Ac(a2-3)Gal(b1-4)]GlcNAc
# Outline: as §1
# [24] = molecular target: Neu5Ac(a2-3)Gal(b1-4)Glc
# Outline: as §1
# [25] = molecular target: Neu5Ac(a2-3)Gal(b1-4)GlcNAc
# Outline: as §1
# [26] = molecular target: Neu5Ac(a2-3)Gal(b1-4)GlcNAc(b1-2)Man
# Outline: as §1
# [27] = molecular target: Neu5Ac(a2-3)Gal(b1-4)GlcNAc(b1-2)Man(a1-3)[GlcNAc(b1-4)][Neu5Ac(a2-3)Gal(b1-4)GlcNAc(b1-2)Man(a1-6)]Man(b1-4)GlcNAc(b1-4)GlcNAc
# Outline: as §1
# [28] = molecular target: Neu5Ac(a2-3)Gal(b1-4)GlcNAc(b1-2)Man(a1-3)[Neu5Ac(a2-3)Gal(b1-4)GlcNAc(b1-2)Man(a1-6)]Man(b1-4)GlcNAc(b1-4)GlcNAc
# Outline: as §1
# [29] = molecular target: Neu5Ac(a2-3)Gal(b1-4)GlcNAc(b1-2)Man(a1-3)[Neu5Ac(a2-3)Gal(b1-4)GlcNAc(b1-2)Man(a1-6)]Man(b1-4)GlcNAc(b1-4)[Fuc(a1-6)]GlcNAc
# Outline: as §1
# [30] = molecular target: Neu5Ac(a2-3)Gal(b1-4)GlcNAc(b1-2)Man(a1-3)[Neu5Ac(a2-6)Gal(b1-4)GlcNAc(b1-2)Man(a1-6)]Man(b1-4)GlcNAc(b1-4)GlcNAc
# Outline: as §1
# [31] = molecular target: Neu5Ac(a2-3)Gal(b1-4)GlcNAc(b1-2)[Neu5Ac(a2-3)Gal(b1-4)GlcNAc(b1-4)]Man(a1-3)[GlcNAc(b1-4)][Neu5Ac(a2-3)Gal(b1-4)GlcNAc(b1-2)[Neu5Ac(a2-3)Gal(b1-4)GlcNAc(b1-6)]Man(a1-6)]Man(b1-4)GlcNAc(b1-4)GlcNAc
# Outline: as §1
# [32] = molecular target: Neu5Ac(a2-3)Gal(b1-4)GlcNAc(b1-2)[Neu5Ac(a2-3)Gal(b1-4)GlcNAc(b1-4)]Man(a1-3)[GlcNAc(b1-4)][Neu5Ac(a2-3)Gal(b1-4)GlcNAc(b1-4)Man(a1-6)]Man(b1-4)GlcNAc(b1-4)GlcNAc
# Outline: as §1
# [33] = molecular target: Neu5Ac(a2-3)Gal(b1-4)GlcNAc(b1-2)[Neu5Ac(a2-3)Gal(b1-4)GlcNAc(b1-6)]Man(a1-6)[Neu5Ac(a2-3)Gal(b1-4)GlcNAc(b1-2)Man(a1-3)][GlcNAc(b1-4)]Man(b1-4)GlcNAc(b1-4)GlcNAc
# Outline: as §1
# [34] = molecular target: Neu5Ac(a2-3)Gal(b1-4)GlcNAc(b1-3)Gal
# Outline: as §1
# [35] = molecular target: Neu5Ac(a2-3)Gal(b1-4)GlcNAc(b1-3)Gal(b1-3)GlcNAc
# Outline: as §1
# [36] = molecular target: Neu5Ac(a2-3)Gal(b1-4)GlcNAc(b1-3)Gal(b1-4)GlcNAc
# Outline: as §1
# [37] = molecular target: Neu5Ac(a2-3)Gal(b1-4)GlcNAc(b1-3)Gal(b1-4)GlcNAc(b1-2)Man(a1-3)[Neu5Ac(a2-3)Gal(b1-4)GlcNAc(b1-3)Gal(b1-4)GlcNAc(b1-2)Man(a1-6)]Man(b1-4)GlcNAc(b1-4)GlcNAc
# Outline: as §1
# [38] = molecular target: Neu5Ac(a2-3)Gal(b1-4)GlcNAc(b1-3)Gal(b1-4)GlcNAc(b1-3)Gal(b1-4)GlcNAc
# Outline: as §1
# [39] = molecular target: Neu5Ac(a2-3)Gal(b1-4)GlcNAc(b1-3)Gal(b1-4)GlcNAc(b1-3)Gal(b1-4)GlcNAc(b1-2)Man(a1-3)[Neu5Ac(a2-3)Gal(b1-4)GlcNAc(b1-3)Gal(b1-4)GlcNAc(b1-3)Gal(b1-4)GlcNAc(b1-2)Man(a1-6)]GalNAc
# Outline: as §1
# [40] = molecular target: Neu5Ac(a2-3)Gal(b1-4)GlcNAc(b1-3)Gal(b1-4)GlcNAc(b1-3)GalNAc
# Outline: as §1
# [41] = molecular target: Neu5Ac(a2-3)Gal(b1-4)GlcNAc(b1-3)Gal(b1-4)GlcNAc(b1-3)[Neu5Ac(a2-3)Gal(b1-4)GlcNAc(b1-3)Gal(b1-4)GlcNAc(b1-6)]GalNAc
# Outline: as §1
# [42] = molecular target: Neu5Ac(a2-3)Gal(b1-4)GlcNAc(b1-3)Gal(b1-4)GlcNAc(b1-6)[Gal(b1-3)]GalNAc
# Outline: as §1
# [43] = molecular target: Neu5Ac(a2-3)Gal(b1-4)GlcNAc(b1-3)Gal(b1-4)[Fuc(a1-3)]GlcNAc
# Outline: as §1
# [44] = molecular target: Neu5Ac(a2-3)Gal(b1-4)GlcNAc(b1-3)GalNAc
# Outline: as §1
# [45] = molecular target: Neu5Ac(a2-3)Gal(b1-4)GlcNAc(b1-3)[Neu5Ac(a2-3)Gal(b1-4)GlcNAc(b1-6)]GalNAc
# Outline: as §1
binder,measurement,setting,value
B1,glycan array binding signal (z-score),[1],-0.618
same,glycan array binding signal (z-score),[2],1.23
same,glycan array binding signal (z-score),[3],-0.343
same,glycan array binding signal (z-score),[4],-0.79
same,glycan array binding signal (z-score),[5],-1.43
same,glycan array binding signal (z-score),[6],0.275
same,glycan array binding signal (z-score),[7],-1.3
same,glycan array binding signal (z-score),[8],-1.32
same,glycan array binding signal (z-score),[9],-1.49
same,glycan array binding signal (z-score),[10],1.77
same,glycan array binding signal (z-score),[11],1.15
same,glycan array binding signal (z-score),[12],-0.43
same,glycan array binding signal (z-score),[13],1.62
same,glycan array binding signal (z-score),[14],-1.16
same,glycan array binding signal (z-score),[15],1.63
same,glycan array binding signal (z-score),[16],0.337
same,glycan array binding signal (z-score),[17],0.016
same,glycan array binding signal (z-score),[18],0.835
same,glycan array binding signal (z-score),[19],-0.791
same,glycan array binding signal (z-score),[20],-0.082
same,glycan array binding signal (z-score),[21],-1.61
same,glycan array binding signal (z-score),[22],2.31
same,glycan array binding signal (z-score),[23],0.254
same,glycan array binding signal (z-score),[24],0.843
same,glycan array binding signal (z-score),[25],0.351
same,glycan array binding signal (z-score),[26],-0.108
same,glycan array binding signal (z-score),[27],-1.52
same,glycan array binding signal (z-score),[28],-0.552
same,glycan array binding signal (z-score),[29],-0.12
same,glycan array binding signal (z-score),[30],-0.245
same,glycan array binding signal (z-score),[31],-1.75
same,glycan array binding signal (z-score),[32],-0.084
same,glycan array binding signal (z-score),[33],-1.1
same,glycan array binding signal (z-score),[34],-0.293
same,glycan array binding signal (z-score),[35],-0.111
same,glycan array binding signal (z-score),[36],-1.37
same,glycan array binding signal (z-score),[37],-0.38
same,glycan array binding signal (z-score),[38],0.53
same,glycan array binding signal (z-score),[39],-0.083
same,glycan array binding signal (z-score),[40],-1
same,glycan array binding signal (z-score),[41],0.575
same,glycan array binding signal (z-score),[42],-1.56
same,glycan array binding signal (z-score),[43],-1.02
same,glycan array binding signal (z-score),[44],-0.09
same,glycan array binding signal (z-score),[45],0.029

# Given as tab-separated lines: entries from further up.
binder	measurement	setting	value
B1	glycan array binding signal (z-score)	[43]	-1.02
same	glycan array binding signal (z-score)	[44]	-0.09
